The other results are listed elsewhere or left out.

Amino acid sequences for entries named in this document (tags omitted). A change or cut given only in a name is not applied to a line headed by its entry.
UniProt Q13242, whole entry, looked up: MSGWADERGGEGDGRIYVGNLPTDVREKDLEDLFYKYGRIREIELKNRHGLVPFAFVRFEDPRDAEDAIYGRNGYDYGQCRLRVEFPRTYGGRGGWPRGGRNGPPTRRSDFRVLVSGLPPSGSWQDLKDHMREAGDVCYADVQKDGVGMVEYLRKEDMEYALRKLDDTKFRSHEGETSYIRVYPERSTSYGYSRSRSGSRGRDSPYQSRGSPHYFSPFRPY
UniProt Q7Z6B7: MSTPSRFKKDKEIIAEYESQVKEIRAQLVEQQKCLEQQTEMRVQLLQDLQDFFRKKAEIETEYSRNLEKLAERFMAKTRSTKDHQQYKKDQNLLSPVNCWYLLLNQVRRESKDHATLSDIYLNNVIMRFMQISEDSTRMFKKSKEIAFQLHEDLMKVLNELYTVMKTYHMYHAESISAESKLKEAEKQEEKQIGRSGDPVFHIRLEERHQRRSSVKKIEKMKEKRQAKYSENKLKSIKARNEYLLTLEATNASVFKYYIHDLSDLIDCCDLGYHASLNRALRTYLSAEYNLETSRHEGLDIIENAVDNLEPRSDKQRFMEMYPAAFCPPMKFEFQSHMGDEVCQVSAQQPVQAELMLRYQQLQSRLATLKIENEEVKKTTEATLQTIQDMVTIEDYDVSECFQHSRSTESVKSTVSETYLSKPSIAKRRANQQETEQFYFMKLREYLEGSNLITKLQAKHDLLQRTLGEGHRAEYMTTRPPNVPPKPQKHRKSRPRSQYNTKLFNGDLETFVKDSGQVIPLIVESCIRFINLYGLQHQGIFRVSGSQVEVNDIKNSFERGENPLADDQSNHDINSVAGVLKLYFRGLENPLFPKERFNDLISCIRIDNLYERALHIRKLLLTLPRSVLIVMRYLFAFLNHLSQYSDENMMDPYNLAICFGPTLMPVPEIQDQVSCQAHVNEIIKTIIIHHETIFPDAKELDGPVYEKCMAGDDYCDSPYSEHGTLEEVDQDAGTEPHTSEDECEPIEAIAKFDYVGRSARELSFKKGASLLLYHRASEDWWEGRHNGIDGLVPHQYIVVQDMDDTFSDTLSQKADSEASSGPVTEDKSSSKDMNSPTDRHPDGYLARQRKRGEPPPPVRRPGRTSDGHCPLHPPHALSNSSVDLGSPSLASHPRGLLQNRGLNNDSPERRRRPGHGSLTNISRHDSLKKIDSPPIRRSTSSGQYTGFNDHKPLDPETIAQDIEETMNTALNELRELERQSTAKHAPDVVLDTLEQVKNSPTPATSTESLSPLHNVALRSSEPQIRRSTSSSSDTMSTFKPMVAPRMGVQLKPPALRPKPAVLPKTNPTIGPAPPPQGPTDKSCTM
UniProt Q8WWL2: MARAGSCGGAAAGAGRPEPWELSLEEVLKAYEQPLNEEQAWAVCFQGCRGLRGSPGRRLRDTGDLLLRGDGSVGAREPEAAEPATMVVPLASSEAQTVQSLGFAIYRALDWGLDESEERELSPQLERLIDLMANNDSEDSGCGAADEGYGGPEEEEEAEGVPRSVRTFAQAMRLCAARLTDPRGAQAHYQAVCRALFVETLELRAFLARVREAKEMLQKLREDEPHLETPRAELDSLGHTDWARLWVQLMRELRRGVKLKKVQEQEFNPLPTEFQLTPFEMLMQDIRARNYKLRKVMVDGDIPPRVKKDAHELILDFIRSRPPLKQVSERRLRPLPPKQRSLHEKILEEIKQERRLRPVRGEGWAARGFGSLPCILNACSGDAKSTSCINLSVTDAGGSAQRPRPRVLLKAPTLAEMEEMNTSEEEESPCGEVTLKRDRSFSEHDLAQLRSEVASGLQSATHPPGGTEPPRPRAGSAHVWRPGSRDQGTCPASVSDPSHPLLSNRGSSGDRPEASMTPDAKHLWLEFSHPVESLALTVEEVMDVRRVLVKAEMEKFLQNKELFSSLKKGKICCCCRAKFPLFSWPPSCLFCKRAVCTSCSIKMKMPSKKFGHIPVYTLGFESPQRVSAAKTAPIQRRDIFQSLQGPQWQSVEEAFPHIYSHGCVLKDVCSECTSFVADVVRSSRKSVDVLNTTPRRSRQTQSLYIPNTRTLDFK
UniProt Q9NP77: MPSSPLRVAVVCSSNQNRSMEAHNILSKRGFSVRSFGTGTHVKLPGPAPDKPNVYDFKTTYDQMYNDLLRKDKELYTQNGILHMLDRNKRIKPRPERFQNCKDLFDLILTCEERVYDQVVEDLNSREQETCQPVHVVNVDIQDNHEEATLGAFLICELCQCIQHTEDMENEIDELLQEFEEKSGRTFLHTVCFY
UniProt Q8NEF9: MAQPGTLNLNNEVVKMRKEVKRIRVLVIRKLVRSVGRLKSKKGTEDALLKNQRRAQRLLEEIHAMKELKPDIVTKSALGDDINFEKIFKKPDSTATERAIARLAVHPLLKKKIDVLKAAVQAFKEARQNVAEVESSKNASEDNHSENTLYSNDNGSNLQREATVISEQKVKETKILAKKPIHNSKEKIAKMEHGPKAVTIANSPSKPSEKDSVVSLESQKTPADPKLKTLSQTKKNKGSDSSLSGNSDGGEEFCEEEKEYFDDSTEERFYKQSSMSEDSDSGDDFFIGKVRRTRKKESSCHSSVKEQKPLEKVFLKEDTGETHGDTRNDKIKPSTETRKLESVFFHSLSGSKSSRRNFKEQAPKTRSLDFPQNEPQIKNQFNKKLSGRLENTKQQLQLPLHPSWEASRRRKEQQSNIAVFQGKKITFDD
UniProt P42224: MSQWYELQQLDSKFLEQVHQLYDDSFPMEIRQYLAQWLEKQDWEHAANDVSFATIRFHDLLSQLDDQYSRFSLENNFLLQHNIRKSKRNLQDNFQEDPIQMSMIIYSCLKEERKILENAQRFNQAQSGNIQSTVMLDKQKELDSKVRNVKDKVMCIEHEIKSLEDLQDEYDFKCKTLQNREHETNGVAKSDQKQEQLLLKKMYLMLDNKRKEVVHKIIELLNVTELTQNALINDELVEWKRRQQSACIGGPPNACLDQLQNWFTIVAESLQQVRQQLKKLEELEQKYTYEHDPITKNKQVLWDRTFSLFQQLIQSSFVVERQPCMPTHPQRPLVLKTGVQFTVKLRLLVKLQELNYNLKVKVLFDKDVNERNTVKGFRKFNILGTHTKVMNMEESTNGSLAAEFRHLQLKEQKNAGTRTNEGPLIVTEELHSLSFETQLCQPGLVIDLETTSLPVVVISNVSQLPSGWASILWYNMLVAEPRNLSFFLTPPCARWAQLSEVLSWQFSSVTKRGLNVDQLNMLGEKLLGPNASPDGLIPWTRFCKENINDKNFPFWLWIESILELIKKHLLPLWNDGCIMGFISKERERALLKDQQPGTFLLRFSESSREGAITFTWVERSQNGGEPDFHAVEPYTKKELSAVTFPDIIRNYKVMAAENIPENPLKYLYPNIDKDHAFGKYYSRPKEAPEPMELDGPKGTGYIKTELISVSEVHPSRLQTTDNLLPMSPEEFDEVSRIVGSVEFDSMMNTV
UniProt P35325: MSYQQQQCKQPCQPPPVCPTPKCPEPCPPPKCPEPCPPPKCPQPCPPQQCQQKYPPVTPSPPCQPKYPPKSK
UniProt Q14849, whole entry, looked up: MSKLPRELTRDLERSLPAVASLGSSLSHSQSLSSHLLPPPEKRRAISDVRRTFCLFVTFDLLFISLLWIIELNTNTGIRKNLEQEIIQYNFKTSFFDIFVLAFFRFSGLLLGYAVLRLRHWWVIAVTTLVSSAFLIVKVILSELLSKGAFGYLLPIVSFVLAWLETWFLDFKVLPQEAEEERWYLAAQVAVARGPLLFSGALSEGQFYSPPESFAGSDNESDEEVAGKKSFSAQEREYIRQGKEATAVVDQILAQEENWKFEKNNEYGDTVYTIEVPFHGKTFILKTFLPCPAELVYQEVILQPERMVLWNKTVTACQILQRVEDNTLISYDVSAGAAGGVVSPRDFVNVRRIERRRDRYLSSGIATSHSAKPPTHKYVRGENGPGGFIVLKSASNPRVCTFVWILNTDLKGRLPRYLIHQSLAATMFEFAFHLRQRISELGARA
UniProt P81877: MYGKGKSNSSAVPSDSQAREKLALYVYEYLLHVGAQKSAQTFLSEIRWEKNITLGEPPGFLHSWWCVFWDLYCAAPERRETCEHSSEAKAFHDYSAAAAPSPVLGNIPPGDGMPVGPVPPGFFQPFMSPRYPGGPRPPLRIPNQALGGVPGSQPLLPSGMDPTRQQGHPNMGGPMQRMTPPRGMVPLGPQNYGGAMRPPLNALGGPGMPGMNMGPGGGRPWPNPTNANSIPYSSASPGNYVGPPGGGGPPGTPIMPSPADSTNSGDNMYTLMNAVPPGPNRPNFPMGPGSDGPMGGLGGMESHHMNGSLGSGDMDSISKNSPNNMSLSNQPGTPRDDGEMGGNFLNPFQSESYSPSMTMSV
UniProt Q12772: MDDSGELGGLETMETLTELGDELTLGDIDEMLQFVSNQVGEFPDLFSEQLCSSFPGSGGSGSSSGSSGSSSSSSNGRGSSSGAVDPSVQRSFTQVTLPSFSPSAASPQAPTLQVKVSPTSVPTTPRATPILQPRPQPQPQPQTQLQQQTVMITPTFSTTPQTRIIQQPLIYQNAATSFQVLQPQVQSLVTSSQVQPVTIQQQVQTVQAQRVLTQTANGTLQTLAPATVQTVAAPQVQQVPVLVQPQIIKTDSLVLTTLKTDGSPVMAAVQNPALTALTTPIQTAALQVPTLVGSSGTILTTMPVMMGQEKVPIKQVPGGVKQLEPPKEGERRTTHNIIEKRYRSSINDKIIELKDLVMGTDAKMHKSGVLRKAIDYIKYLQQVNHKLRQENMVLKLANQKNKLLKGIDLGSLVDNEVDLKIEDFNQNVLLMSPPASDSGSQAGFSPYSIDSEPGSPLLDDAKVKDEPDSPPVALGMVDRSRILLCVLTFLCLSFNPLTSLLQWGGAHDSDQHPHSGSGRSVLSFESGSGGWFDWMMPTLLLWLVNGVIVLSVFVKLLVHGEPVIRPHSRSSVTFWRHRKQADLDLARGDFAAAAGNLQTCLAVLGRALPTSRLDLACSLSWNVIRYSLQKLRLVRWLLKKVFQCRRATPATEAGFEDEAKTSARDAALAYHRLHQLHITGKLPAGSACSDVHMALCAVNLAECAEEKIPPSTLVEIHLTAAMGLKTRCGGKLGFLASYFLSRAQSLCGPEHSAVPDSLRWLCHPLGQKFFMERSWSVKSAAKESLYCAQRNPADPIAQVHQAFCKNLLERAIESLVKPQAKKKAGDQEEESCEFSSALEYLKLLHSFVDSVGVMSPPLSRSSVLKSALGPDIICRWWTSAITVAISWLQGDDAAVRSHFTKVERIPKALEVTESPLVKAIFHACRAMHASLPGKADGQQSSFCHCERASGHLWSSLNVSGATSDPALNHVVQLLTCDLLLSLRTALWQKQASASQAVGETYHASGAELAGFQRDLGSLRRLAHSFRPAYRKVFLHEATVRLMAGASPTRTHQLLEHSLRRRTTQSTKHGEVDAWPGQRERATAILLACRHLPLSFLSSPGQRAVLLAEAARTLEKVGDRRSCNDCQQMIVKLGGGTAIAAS
UniProt Q8N9Q2: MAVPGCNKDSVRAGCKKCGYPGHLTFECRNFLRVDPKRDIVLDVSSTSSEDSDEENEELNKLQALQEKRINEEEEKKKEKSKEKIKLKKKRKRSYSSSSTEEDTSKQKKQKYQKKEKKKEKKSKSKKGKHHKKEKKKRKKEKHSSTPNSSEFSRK
UniProt Q7Z698: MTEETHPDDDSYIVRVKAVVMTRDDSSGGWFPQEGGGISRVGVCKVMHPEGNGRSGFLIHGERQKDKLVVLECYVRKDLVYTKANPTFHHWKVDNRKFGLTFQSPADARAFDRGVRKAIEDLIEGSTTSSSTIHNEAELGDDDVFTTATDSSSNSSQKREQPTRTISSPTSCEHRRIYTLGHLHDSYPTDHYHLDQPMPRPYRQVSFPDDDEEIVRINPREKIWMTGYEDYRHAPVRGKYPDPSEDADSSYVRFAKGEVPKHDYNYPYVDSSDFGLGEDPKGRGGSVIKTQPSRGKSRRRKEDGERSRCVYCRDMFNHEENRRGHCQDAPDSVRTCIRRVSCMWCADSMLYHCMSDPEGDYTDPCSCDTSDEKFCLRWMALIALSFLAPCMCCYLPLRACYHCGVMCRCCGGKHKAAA
UniProt Q96EA4: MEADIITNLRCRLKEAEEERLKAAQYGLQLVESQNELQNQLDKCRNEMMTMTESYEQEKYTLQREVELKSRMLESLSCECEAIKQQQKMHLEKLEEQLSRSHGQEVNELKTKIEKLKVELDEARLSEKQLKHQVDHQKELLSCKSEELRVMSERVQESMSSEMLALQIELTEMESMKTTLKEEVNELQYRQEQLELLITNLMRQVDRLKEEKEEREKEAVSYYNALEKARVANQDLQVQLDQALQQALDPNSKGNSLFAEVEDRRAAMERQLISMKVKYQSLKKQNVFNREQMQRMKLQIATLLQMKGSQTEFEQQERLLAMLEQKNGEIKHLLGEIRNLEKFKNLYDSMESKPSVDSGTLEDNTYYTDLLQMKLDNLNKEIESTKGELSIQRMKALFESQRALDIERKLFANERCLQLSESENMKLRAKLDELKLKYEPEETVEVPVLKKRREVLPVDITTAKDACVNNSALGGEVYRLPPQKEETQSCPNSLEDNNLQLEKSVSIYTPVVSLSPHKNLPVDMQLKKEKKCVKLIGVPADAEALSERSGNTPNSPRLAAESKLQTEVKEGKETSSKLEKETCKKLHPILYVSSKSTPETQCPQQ

Compound in the first assay: C1=CC=C(C=C1)[C@H](COC2=CC3=C(C=C2)NC(=O)N3)NC(=O)C4=CC=CN(C4=O)CC5=CC(=C(C=C5)F)F
Description: log2 fold change, soluble protein after heating vs DMSO (PISA); higher = thermal stabilisation; K562 cells, 10 uM, 30 min; active = over 0.2 and 3.5 SD of the protein, either way, in both replicates (recomputed). Put shortly: (§1)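 K562 cells (2×10^6 cells/mL) were treated with 10 μM compound for 30 min, and aliquots were heated for 3 min over 48°C-58°C. Pooled aliquots were extracted in PBS with 0.5% NP-40 at 4°C, and the supernatant after 21,000xg for 90 min was measured by TMTpro 16plex LC-MS/MS with channel sums equalised. Reported thermal stability, relative to control samples and from duplicates, is a log2 fold change.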
SRSF9 (UniProt Q13242): the log2 fold change was inactive: 0.045.
Same read-out and setting: in the case of SRCIN1 (UniProt Q9C0H9) it was inactive: 0.005; in that of STC2 (UniProt O76061), inactive: -0.018.
Same read-out and setting: in the case of SRGAP1 (UniProt Q7Z6B7) it was inactive: 0.065; in that of STAB1 (UniProt Q9NY15), inactive: -0.17.
Still for that read-out and setting: in the case of SPIRE2 (UniProt Q8WWL2) it was inactive: -0.13.
For STAT3 (UniProt P40763), the log2 fold change is inactive: -0.033.
Same read-out and setting: in the case of SSU72 (UniProt Q9NP77) it was inactive: -0.057; in that of SRFBP1 (UniProt Q8NEF9), inactive: 0.011.
The same measure, in the same setting: in the case of STAT1 (UniProt P42224) it was inactive: 0.041; in that of ST8SIA6 (UniProt P61647), inactive: 0.053; in that of SSBP4 (UniProt Q9BWG4), inactive: 0.086.
On the same count and under the same terms, with SPRR2B (UniProt P35325) the figure was inactive: 0.312; with SRRD (UniProt Q9UH36), inactive: -0.33; with ST3GAL4 isoform 4 (UniProt Q11206), inactive: -0.035.
STARD3 (UniProt Q14849): the log2 fold change was inactive: 0.011.
On the same count and under the same terms, in the case of SPTA1 (UniProt P02549) it was inactive: -0.018; in that of SPATA31E1 (UniProt Q6ZUB1), inactive: -0.008.
On to SSBP2 (UniProt P81877), for which the log2 fold change is inactive: 0.077.
On the same count and under the same terms, with SRR (UniProt Q9GZT4) the figure was inactive: 0.03; with SREBF2 (UniProt Q12772), inactive: -0.032; with SREK1IP1 (UniProt Q8N9Q2), inactive: 0.031.
On the same count and under the same terms, in the case of SSX1 (UniProt Q16384) it was inactive: -0.209.

Compound in the next assay: CC1=C(SC2=C1C(=N[C@H](C3=NN=C(N32)C)CC(=O)N)C4=CC=C(C=C4)Cl)C
Described as above. Put shortly:
as §1
Consider SRSF9 (UniProt Q13242), for which the log2 fold change was inactive: -0.452.
On the same count and under the same terms, with SPATS2L isoform 3 (UniProt Q9NUQ6) the figure was inactive: -0.199; with STAB1 (UniProt Q9NY15), inactive: 0.
In the case of SPRED2 (UniProt Q7Z698), the log2 fold change was inactive: 0.017.
For the target SPIRE2 (UniProt Q8WWL2), the log2 fold change is inactive: -0.04.
As to STAT3 (UniProt P40763), the log2 fold change was inactive: 0.034.
Same read-out and setting: in the case of SSU72 (UniProt Q9NP77) it was inactive: 0.05; in that of SRFBP1 (UniProt Q8NEF9), inactive: -0.14.
The same measure, in the same setting: in the case of STAT1 (UniProt P42224) it was inactive: -0.092; in that of SPDL1 (UniProt Q96EA4), inactive: -0.034.
Still for that read-out and setting: with ST3GAL4 isoform 4 (UniProt Q11206) the figure was inactive: 0.008.
For the target STARD3 (UniProt Q14849), the log2 fold change was inactive: -0.036.
On the same count and under the same terms, with SPTA1 (UniProt P02549) the figure was inactive: -0.053; with SPATA31E1 (UniProt Q6ZUB1), inactive: 0.175; with SPATS2 (UniProt Q86XZ4), inactive: -0.055.
On the same count and under the same terms, in the case of SPRED1 (UniProt Q7Z699) it was inactive: 0.014; in that of SSBP2 (UniProt P81877), inactive: 0.117.
In the case of SREK1IP1 (UniProt Q8N9Q2), the log2 fold change is inactive: -0.057.
The same measure, in the same setting: with ST3GAL1 (UniProt Q11201) the figure was inactive: 0.294.
On to SSX1 (UniProt Q16384), for which the log2 fold change was inactive: -0.095.

The values are drawn from the supplement of paper PMC10849652.
